Reference: publication PMC7949058
Results are given in words; binding and its absence hold for the method and conditions named. Binding seen in cells or lysates may run through a third protein. Some results given as binding are weak or reduced against the parent protein; the word gives no strength.

The chains behind the UniProt entries cited, without tags or fusion partners. Where a name states a change or a piece, a line headed by the entry shows the natural chain unless it says otherwise.
UniProt P06239: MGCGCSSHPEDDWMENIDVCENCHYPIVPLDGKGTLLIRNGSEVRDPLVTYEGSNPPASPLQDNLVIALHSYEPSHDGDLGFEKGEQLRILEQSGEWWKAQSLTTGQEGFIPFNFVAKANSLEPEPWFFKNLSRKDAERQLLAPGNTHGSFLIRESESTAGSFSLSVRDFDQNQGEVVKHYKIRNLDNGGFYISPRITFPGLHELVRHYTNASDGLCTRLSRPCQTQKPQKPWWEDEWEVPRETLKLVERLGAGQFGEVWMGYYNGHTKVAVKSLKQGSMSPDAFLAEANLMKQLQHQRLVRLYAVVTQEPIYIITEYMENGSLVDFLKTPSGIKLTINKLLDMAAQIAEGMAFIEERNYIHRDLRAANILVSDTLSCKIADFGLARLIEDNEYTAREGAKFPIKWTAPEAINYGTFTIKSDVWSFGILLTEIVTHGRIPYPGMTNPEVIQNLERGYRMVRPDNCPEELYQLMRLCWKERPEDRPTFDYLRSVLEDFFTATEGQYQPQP
UniProt P43403: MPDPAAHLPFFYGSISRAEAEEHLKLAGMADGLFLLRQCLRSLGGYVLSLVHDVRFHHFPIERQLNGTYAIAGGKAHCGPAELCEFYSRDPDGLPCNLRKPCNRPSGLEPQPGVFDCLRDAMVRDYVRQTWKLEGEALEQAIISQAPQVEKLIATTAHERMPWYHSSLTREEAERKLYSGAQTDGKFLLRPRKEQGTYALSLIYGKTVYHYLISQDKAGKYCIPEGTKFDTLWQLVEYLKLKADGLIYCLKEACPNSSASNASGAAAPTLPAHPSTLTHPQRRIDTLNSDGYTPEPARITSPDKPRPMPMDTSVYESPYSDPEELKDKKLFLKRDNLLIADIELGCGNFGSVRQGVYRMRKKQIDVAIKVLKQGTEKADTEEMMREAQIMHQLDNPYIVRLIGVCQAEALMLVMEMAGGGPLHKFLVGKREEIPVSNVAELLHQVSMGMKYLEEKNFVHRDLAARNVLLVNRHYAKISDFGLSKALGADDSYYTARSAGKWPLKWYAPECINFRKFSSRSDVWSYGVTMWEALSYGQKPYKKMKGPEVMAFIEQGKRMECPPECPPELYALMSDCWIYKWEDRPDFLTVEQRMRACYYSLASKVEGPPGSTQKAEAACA

Target: Lck (Src-family kinase) (human (endogenous in P116 Jurkat)) (UniProt P06239)
Experiment: co-IP; Lck immunoprecipitated (1 ug anti-Lck clone 3A5, Protein A agarose, overnight 4 °C) from 500 ug of 1% DDM lysate of P116 Jurkat cells stably expressing WT or C564R ZAP-70; cells resting or stimulated with anti-CD3 antibody for the indicated times; ZAP-70 detected in eluates by immunoblot

| binding | Substance |
| --- | --- |
| binds | C564R ZAP-70 (acylation-deficient mutant) (from UniProt P43403 1-619) (enzyme) |
| binds | wildtype ZAP-70 (CD3ζ-chain-associated protein kinase 70) (from UniProt P43403 1-619) (enzyme) |
